Measurements from PMC10946275, “New imidazole-2-thiones linked to acenaphythylenone as dual DNA intercalators and topoisomerase II inhibitors: structural optimization, docking, and apoptosis studies” (Journal of Enzyme Inhibition and Medicinal Chemistry, 2024).

System: calf thymus DNA (ctDNA)
Test: Terbium (Tb3+) luminescent biosensor detection of induced DNA damage
Assay type: biochemical
Conditions: for Slope (b): linear region of Tb luminescence vs concentration plot
Text: Luminescence studies were accomplished in order to examine the possible DNA interaction with the studied compounds. Many luminescent biosensors are reported in literature for studying the possibility of DNA interaction with small molecules. […] Figure 5 presents a schematic diagram for the fluorometric detection of the induced DNA damage using Tb biosensor. Tb^3+ ion in the Tb luminescent probe is a trivalent lanthanide cation having low intrinsic luminescence in aqueous solutions[45]^,[46]. When Tb biosensor is added to a solution of DNA, it interacts differently with double-stranded DNA (dsDNA) and single-stranded DNA (ssDNA). With dsDNA, Tb^3+ ions are electrostatically attracted to the negatively charged phosphate backbone of the DNA. […] Therefore, the assessed compound damages dsDNA, ssDNA sites would be formed opposite to the site of damage and Tb^3+ would directly coordinate to the unpaired nucleobases in this single-stranded site.
For investigating the DNA interaction potential of the fourteen studied compounds, calf thymus DNA (ctDNA) was incubated with each compound for 24 h and then Tb was added to each mixture. Doxorubicin (DOX), a commonly used reference for DNA damaging agent was used and treated the same condition as the studied compounds. Tb luminescent intensity was measured at λmax = 545 nm after excitation at λmax = 270 nm.
Several concentrations within the range of 0.1 pM–200.0 μM of each of the studied compounds were incubated with ctDNA for 24 h. After which, Tb solution was added to aliquots of such mixtures and the luminescence intensity was recorded. Figure 7 presents Tb luminescence intensity as a function of the compound concentration for various compound/ctDNA/Tb mixtures. At minimum concentration of the studied compounds, minimum Tb luminescence was recorded. This reflects that the DNA molecule is undamaged, intact and acquiring a double helical structure. In this conformation, Tb ions are electrostatically attracted to the negatively charged DNA-phosphate backbone showing no increase in its luminescence. For solutions with higher concentrations of compounds 5b, 5h, and 5j (Figure 7a,c,and d). Tb fluorescence increased proportionally with the concentration until a concentration of 100 and 60 μM for compounds 5b, 5h, and 5j, respectively, where no further increase in the fluorescence occurs. This reflects that more DNA damage is induced with increasing concentrations of the three compounds. At concentrations higher than 100 and 60 μM for compounds 5b, 5h, and 5j, respectively, Tb luminescence remains constant at high fluorescence levels. […] Table 1 illustrates the analytical parameters elucidated as shown in Figure 7 for the quantification of the induced DNA damage by the studied compounds. The linearity parameters were calculated from the calibration curve in Figure 7-inset in order to obtain the minimum concentration of the studied compounds that would induce DNA damage.
Fluorescence measurements: Fluorescence spectra were measured between 290 and 800 nm with excitation at 270 nm of 100 µL solutions in a 1 cm path length Suprasil quartz fluorescence cuvette.
The PerkinElmer LS 55 fluorescence spectrophotometer was used to measure the fluorescence. After 24 h of incubation in buffer solution (40 mM Tris, 10 mM NaCl, pH 7.5), aliquots of each DNA-Compound mixture were combined with TbCl3 to confirm DNA damage. The final concentrations were […] ctDNA, 3 mM TbCl3, and 50 µM of each compound in buffer solution (40 mM Tris, 10 mM NaCl, pH 7.5). Calf thymus DNA (ctDNA) was combined with various quantities of each substance, ranging from 0.1 pM to 200 µM, for the experiment. The ultimate concentrations of […] ctDNA and 3 mM were achieved by adding Tb3 + solution to the ctDNA/compound combinations in buffer solution (40 mM Tris, 10 mM NaCl, pH 7.5) after 24 h of incubation.[44]
All chemicals, solvents, media and kits were purchased from commercial suppliers. […]

SMILES	Slope (b)	Linear dynamic range (Tb luminescence vs compound concentration, ctDNA, 24 h incubation) [µM]
COc1cccc(-n2c(-c3ccc(Cl)cc3)cn(N=C3C(=O)c4cccc5cccc3c45)c2=S)c1 [5j, 2-((4-(4-Chlorophenyl)-3-(3-methoxyphenyl)-2-thioxo-2,3-dihydro-1H-imidazol-1-yl)-imino)acenaphthylen-1(2H)-one]	8124.2	–
COc1cccc(-n2c(-c3ccccc3)cn(N=C3C(=O)c4cccc5cccc3c45)c2=S)c1 [5e, 2-((3-(3-Methoxyphenyl)-4-phenyl-2-thioxo-2,3-dihydro-1H-imidazol-1-yl)imino)-acenaphthylen-1(2H)-one]	7580	20.0 to 80.0
O=C1C(=Nn2cc(-c3ccc(Cl)cc3)n(-c3ccccc3)c2=S)c2cccc3cccc1c23 [5h, 2-((4-(4-chlorophenyl)-3-phenyl-2-thioxo-2,3-dihydro-1H-imidazol-1-yl)imino)-acenaphthylen-1(2H)-one]	13306	–
COc1cccc2c1C(=O)c1c(O)c3c(c(O)c1C2=O)C[C@@](O)(C(=O)CO)C[C@@H]3O[C@H]1C[C@H](N)[C@H](O)[C@H](C)O1 [doxorubicin, reference compound]	8923.2	–
O=C1C(=Nn2cc(-c3ccccc3)n(-c3ccccc3)c2=S)c2cccc3cccc1c23 [5b, 2-((3,4-Diphenyl-2-thioxo-2,3-dihydro-1H-imidazol-1-yl)imino)acenaphthylen-1(2H)-one]	13283	–
